Measurements from publication PMC12431657, “Discovery and mechanistic insights of dibenzoylmethane as a broad spectrum inhibitor of coronavirus” (PLOS Pathogens, 2025).
Counter-ions that a name gives are not always drawn. Like-named read-outs stand apart in the source and are kept apart here. The campaign covered roughly 3,300 compounds. About 60 (2%) showed an effect of 50% or more. The list shows a part of the results.

Tested on: HCoV-OC43
Set-up: species or system RD; HTS, protection from HCoV-OC43 induced cell death, luminescent cell viability (CellCounting-Lite 2.0), inhibition rate
Details: 24 h post infection, 1 h compound pre-incubation, 10 µM, inhibitor

| Compound | OC43 Inhibition rate [%] | OC43 Inhibition rate (OC43 Inhibition rate, 24 h) [%] |
| --- | --- | --- |
| O=C(O)c1cc(O)c2c(c1)[C@H]([C@H]1c3cccc(O)c3C(=O)c3c(O)cc(C(=O)O)cc31)c1cccc(O)c1C2=O [Sennidin B] | 8.5 | – |
| CC(=O)O[C@H]([C@@H](O)C[C@@H](C)C1=C2C[C@H](O)[C@H]3[C@@]4(C)CCC(=O)C(C)(C)[C@@H]4CC[C@]3(C)[C@@]2(C)CC1)C(C)(C)O [Alisol A 24-acetate] | -1.3 | – |
| O=C(O)c1ccncc1 [Isonicotinic acid] | -0.2 | – |
| O=CCc1ccccc1 [2-Phenylacetaldehyde] | -1.2 | – |
| COc1ccc([C@@H]2CC(=O)c3c(O)cc(O[C@@H]4O[C@H](CO)[C@@H](O)[C@H](O)[C@H]4O)cc3O2)cc1O [Hesperetin 7-O-glucoside] | 3 | – |
| O=C(O[C@@H]1O[C@@H]2COC(=O)c3cc(O)c(O)c(O)c3-c3c(cc(O)c(O)c3O)C(=O)O[C@H]([C@H]1O)[C@@H]2O)c1cc(O)c(O)c(O)c1 [Corilagin] | 0.2 | – |
| COc1ccc(C[C@H](N)C(=O)N[C@H]2[C@@H](O)[C@H](n3cnc4c(N(C)C)ncnc43)O[C@@H]2CO)cc1 [Puromycin (dihydrochloride)] | 6.9 | – |
| COc1ccc(CC(=O)O)cc1O [Isohomovanillic acid] | 0 | – |
| CC1=CC(=O)c2c(O)cccc2C1=O [Plumbagin] | -3.8 | – |
| O=C(OC[C@H]1O[C@@H](Oc2c(-c3ccc(O)c(O)c3)oc3cc(O)cc(O)c3c2=O)[C@H](O)[C@@H](O)[C@H]1O)c1cc(O)c(O)c(O)c1 [Quercetin 3-O-(6''-galloyl)-β-D-galactopyranoside] | 0.1 | – |
| C/C=C(\C)C(=O)O [Tiglic acid] | 0.1 | – |
| COc1cc(C[C@@H](CO[C@@H]2O[C@H](CO)[C@@H](O)[C@H](O)[C@H]2O)[C@H](CO[C@@H]2O[C@H](CO)[C@@H](O)[C@H](O)[C@H]2O)Cc2ccc(O)c(OC)c2)ccc1O [Secoisolariciresinol diglucoside] | – | -4.6 |
| CC(C)=CCOc1c2occc2cc2ccc(=O)oc12 [Imperatorin] | 3.3 | – |
| CC(C)C(O)C(=O)O (stereo not shown) [2-Hydroxy-3-methylbutanoic acid] | -1.8 | – |
| NC1CCSC1=O (racemic) [DL-Homocysteine thiolactone (hydrochloride)] | -0.3 | – |
| N[C@H](CCSSCC[C@@H](N)C(=O)O)C(=O)O (racemic) [DL-Homocystine] | -2.7 | – |
| CCCCCCCCCCCCCCOC(C)=O [Tetradecyl acetate] | -0.7 | – |
| OCCCO [1,3-Propanediol] | 25.1 | – |
| CN[C@@H]1[C@@H](O)[C@@H](O[C@@H]2[C@@H](O)[C@H](O[C@H]3OC(CN)=CC[C@H]3N)[C@@H](N)C[C@H]2N)OC[C@]1(C)O [Sisomicin (sulfate)] | 8.9 | – |
| CCC(=O)OC(CC(=O)[O-])C[N+](C)(C)C (stereo not shown) [Propionylcarnitine] | 0 | – |
| C[C@H](CC[C@@H](O)C(C)(C)O)[C@H]1CC[C@@]2(C)[C@@H]3CC=C4[C@@H](CC[C@H](O[C@@H]5O[C@H](CO[C@@H]6O[C@H](CO)[C@@H](O)[C@H](O)[C@H]6O)[C@@H](O)[C@H](O)[C@H]5O)C4(C)C)[C@]3(C)[C@H](O)C[C@]12C [Mogroside II-A2] | 20.1 | – |
| Cc1cn([C@@H]2O[C@H](CO)[C@@H](O)[C@H]2O)c(=O)[nH]c1=O [5-Methyluridine] | -0.4 | – |
| COc1cc(C(=O)OCCCCNC(=N)N)cc(OC)c1O [Leonurine (hydrochloride)] | – | -0.1 |
| O=C(C[C@H]1NCCC[C@@H]1O)Cn1cnc2cc(Br)c(Cl)cc2c1=O (racemic) [Halofuginone (hydrobromide)] | – | -8.1 |
| C=C1CC[C@@H]2[C@](C)(CO[C@@H]3O[C@H](CO)[C@@H](O)[C@H](O)[C@H]3O)CCC[C@@]2(C)[C@@H]1CCC1=CCOC1=O [Neoandrographolide] | 0.3 | – |
| CC(C)(O)CCc1c(O)cc(O)c2c(=O)c(O)c(-c3ccc(O)cc3)oc12 [Noricaritin] | 0.9 | – |
| COc1cc2c(cc1O)CC[C@@H]1[C@@H]2CC[C@]2(C)C(=O)CC[C@@H]12 [2-Methoxyestrone] | 5.2 | – |
| OCCc1ccc(O)c(O)c1 [Hydroxytyrosol] | 6.7 | – |

Among those listed so far, these contain four or more nitrogen atoms:

| Compound | OC43 Inhibition rate [%] | OC43 Inhibition rate (OC43 Inhibition rate, 24 h) [%] |
| --- | --- | --- |
| COc1ccc(C[C@H](N)C(=O)N[C@H]2[C@@H](O)[C@H](n3cnc4c(N(C)C)ncnc43)O[C@@H]2CO)cc1 [Puromycin (dihydrochloride)] | 6.9 | – |
| CN[C@@H]1[C@@H](O)[C@@H](O[C@@H]2[C@@H](O)[C@H](O[C@H]3OC(CN)=CC[C@H]3N)[C@@H](N)C[C@H]2N)OC[C@]1(C)O [Sisomicin (sulfate)] | 8.9 | – |

The results go on.

| Compound | OC43 Inhibition rate [%] | OC43 Inhibition rate (OC43 Inhibition rate, 24 h) [%] |
| --- | --- | --- |
| NC(=O)NC(CC(=O)O)C(=O)O (racemic) [N-Carbamoyl-DL-aspartic acid] | -3.4 | – |
| OC[C@H]1O[C@H](OC[C@H]2O[C@H](O[C@]3(CO)O[C@H](CO)[C@@H](O)[C@@H]3O)[C@H](O)[C@@H](O)[C@@H]2O)[C@H](O)[C@@H](O)[C@H]1O [Raffinose] | -0.3 | – |
| C[C@@H]1CC[C@]2(C(=O)O)CC[C@]3(C)C(=CC[C@@H]4[C@@]5(C)C[C@@H](O)[C@@H](O)C(C)(C)[C@@H]5CC[C@]43C)[C@@H]2[C@]1(C)O [Euscaphic acid] | -1.5 | – |
| O=C(O)c1cc(=O)cc(C(=O)O)o1 [Chelidonic acid] | 0.7 | – |
| O=C(/C=C/c1ccc(O)c(O)c1)OC[C@@H](O)CO[C@@H]1O[C@H](CO)[C@@H](O)[C@H](O)[C@H]1O [Regaloside C] | -0.3 | – |
| C[N+](C)(C)C[C@H](O)CC(=O)[O-] [L-Carnitine (hydrochloride)] | – | -0.9 |
| COc1cc(CCC(O)CC(O)CCc2ccc(O)c(OC)c2)ccc1O (stereo not shown) [Octahydrocurcumin] | 1.7 | – |
| O=C(/C=C/c1ccc(O)cc1)NCCc1ccc(O)cc1 [N-p-trans-Coumaroyltyramine] | 1.2 | – |
| COc1c(O)cc2c(c1O)C(=O)c1c(cc(C)c(O)c1OC)C2=O [Aurantio-obtusin] | 1.4 | – |
| Cc1cc(=O)c2c(O)c3c(cc2o1)OC(C)(C)[C@@H](O[C@@H]1O[C@H](CO)[C@@H](O)[C@H](O)[C@H]1O)C3 [Sec-O-Glucosylhamaudol] | -0.4 | – |
| C[C@H]1[C@H](C)CC[C@]2(C(=O)O)CC[C@]3(C)C(=CC[C@@H]4[C@@]5(C)C[C@@H](O)[C@H](O)C(C)(C)[C@@H]5CC[C@]43C)[C@H]12 [Corosolic acid] | -23.1 | – |
| C=C(C)[C@H](CC=C(C)C)Cc1c(O)cc(OC)c2c1O[C@H](c1ccc(O)cc1O)CC2=O [Kurarinone] | 0 | – |
| COc1cc(O)c2c(=O)c(O[C@@H]3O[C@H](CO)[C@@H](O)[C@H](O)[C@H]3O)c(-c3ccc(O[C@@H]4O[C@H](CO)[C@@H](O)[C@H](O)[C@H]4O)cc3)oc2c1 [Complanatuside] | -0.2 | – |
| O=C(O)CCc1ccccc1O [3-(2-Hydroxyphenyl)propanoic acid] | -0.1 | – |
| CC(C)=CCC/C(C)=C/CC/C(C)=C/CO [Farnesol] | -0.3 | – |
| CC[C@H]1CN2CC[C@@]3(C(=O)Nc4ccccc43)[C@@H]2C[C@@H]1/C(=C\OC)C(=O)OC [Isorhynchophylline] | 2.7 | – |
| COc1c(-c2ccccc2)oc2c(ccc3occc32)c1=O [Karanjin] | 0 | – |
| CO[C@@H]1C=C2[C@@H]3CC(C)(C)CC[C@]3(CO)[C@H](O)C[C@@]2(C)[C@]2(C)CC[C@H]3[C@](C)(CO)[C@@H](O[C@@H]4O[C@H](C)[C@H](O)[C@H](O[C@@H]5O[C@H](CO)[C@@H](O)[C@H](O)[C@H]5O)[C@H]4O)CC[C@]3(C)[C@@H]12 [Saikosaponin B4] | 1.1 | – |
| O=C1C[C@@H](c2ccccc2)Oc2cc(O[C@@H]3O[C@H](CO)[C@@H](O)[C@H](O)[C@H]3O)cc(O)c21 [Pinocembrin-7-O-β-D-glucopyranoside] | -0.1 | – |
| O=c1cc(-c2ccccc2)oc2cc(O)cc(O)c12 [Chrysin] | 1.5 | – |
| Nc1ncnc2c1ncn2[C@@H]1O[C@H](COP(=O)(O)OP(=O)(O)O)[C@@H](O)[C@H]1O [Adenosine 5'-diphosphate] | 0.9 | – |
| CCCCCc1cc(=O)c2ccccc2n1C [1-Methyl-2-pentyl-4(1H)-quinolinone] | -0.6 | – |
| CC(C)=CCC[C@](C)(O[C@@H]1O[C@H](CO)[C@@H](O)[C@H](O)[C@H]1O)[C@H]1CC[C@]2(C)[C@@H]1[C@H](O)C[C@@H]1[C@@]3(C)CC[C@H](O)C(C)(C)[C@@H]3[C@@H](O[C@@H]3O[C@H](CO)[C@@H](O)[C@H](O)[C@H]3O)C[C@]12C [Ginsenoside Rg1] | -0.4 | – |
| CC(CC(=O)C[C@@H](C)[C@H]1CC(=O)[C@@]2(C)C3=C(C(=O)C[C@]12C)[C@@]1(C)CC[C@H](O)C(C)(C)[C@@H]1C[C@@H]3O)C(=O)O (stereo partly shown) [Ganoderic acid B] | -3.1 | – |
| C=C1CC[C@@H]2[C@](C)(CO)[C@H](O)CC[C@@]2(C)[C@@H]1CCC1=CCOC1=O [14-Deoxyandrographolide] | – | -0.4 |
| CO[C@H]1[C@@H](O)[C@H](O[C@@H]2[C@@H](C)O[C@@H](O[C@H]3CC[C@@]4(C)[C@@H](CC[C@@]56O[C@@]57CC[C@@H](C(C)=O)[C@@]7(C)[C@H](OC(C)=O)[C@@H](OC(=O)c5ccccc5)[C@H]46)C3)C[C@H]2OC)O[C@H](C)[C@H]1O [Tenacissoside I] | -4 | – |
| CN1Cc2c(ccc3c2OCO3)-c2ccc3cc4c(cc3c21)OCO4 [Dihydrosanguinarine] | 16.8 | – |
